From patent US11337971B2, “Dopamine D3 receptor selective antagonists/partial agonists and uses thereof” (THE UNITED STATES OF AMERICA, AS REPRESENTED BY THE …, priority 2018, dated 2022)

What was measured:
Male Long-Evans rats [1] = experiment: Naloxone-precipitated conditioned place aversion (CPA) in chronic oxycodone-treated rats; format: in vivo, rat; details: naloxone 1 mg/kg; for CPP or CPA from conditioning alone in chronically saline-treated rats: compound 15 mg/kg
Method: Naloxone-precipitated CPA was tested in a place-conditioning apparatus (Med Associates, St Albans, Vt.) consisting of two side compartments (21 cm×28 cm) and a central gray connecting area (21 cm×12.5 cm); a sliding door separated each compartment from the connecting area. The two side compartments differed in wall color (black vs white), floor type (stainless steel net vs stainless steel grid), and illumination. Before the experiment started, all the animals were allowed to explore the conditioning apparatus for 15 min (preconditioning).
Six groups (n=8/group) of rats were involved in this test, 3 groups were chronically treated with oxycodone (3 mg/kg, i.p.) and the other 3 with saline (1 ml/kg), twice daily (800 and 1800 h). Four hours following the morning injection on Day 4 and 6, the oxycodone treated rats were challenged with saline and immediately confined in one side compartment of the conditioning box for 30 min, while on Day 5 and 7, they were first pretreated with either vehicle or 1 of 2 doses of compound (±)-29 (5 and 15 mg/kg, i.p.) 3 h after morning oxycodone injection, and 1 h later, challenged with naloxone (1 mg/kg, i.p.). The rats were then immediately confined in the other side compartment for 30 min. The side compartments for saline or naloxone conditioning were counterbalanced in each group. Place conditioning procedures for chronically saline treated groups were the same as for oxycodone treated groups on Day 4 and 6, but on Day 5 and 7, these 3 groups were challenged with either naloxone, vehicle or compound (±)-29 (15 mg/kg) at the same time point assigned for oxycodone treated groups (FIG. 4A). Twenty-four hours after the last conditioning session, the animals were each placed in the same apparatus and allowed to explore the apparatus for an additional 15 min. The time that animals spent in each compartment was recorded. The CPA score was calculated as the time difference (seconds) that animal spent in drug-paired versus saline-paired compartment.

Male Long-Evans rats [2] = experiment: Oral sucrose self-administration; format: in vivo, rat

SMILES | CPP or CPA from conditioning alone in chronically saline-treated rats (Male Long-Evans rats [1]) | CPA in vehicle-pretreated rats chronically treated with 3 mg/kg oxycodone (Male Long-Evans rats [1]; i.p., 2 conditioning sessions) | sucrose self-administration (Male Long-Evans rats [2]; 15-25 mg/kg, i.p.) | time required to reach the maximal sucrose deliveries vs vehicle (Male Long-Evans rats [2]; 15-25 mg/kg, i.p.) | time to reach the capped number of sucrose deliveries (Male Long-Evans rats [2]; most rats pretreated with compound)
C=CCN1CC[C@]23c4c5ccc(O)c4O[C@H]2C(=O)CC[C@@]3(O)[C@H]1C5 [naloxone, reference compound] | neither CPP or CPA | induced a significant CPA | – | – | –
CCc1cc(Cl)c(OC)c(N2CCN(CC(O)CCNC(=O)c3cc4ccccc4[nH]3)CC2)c1 (racemic) [Compound 29, N-(4-(4-(3-chloro-5-ethyl-2-methoxyphenyl)piperazin-1-yl)-3-hydroxybutyl)-1H-indole-2-carboxamide] | neither CPP or CPA | – | did not significantly alter sucrose self-administration; also recorded: had no effect on oral sucrose self-administration | significantly longer | approximately 1 h

Entries after “also recorded” stand apart in the source; their conditions may differ.
